In publication PMC11378411 one finds binding data, which are given here for four substances.

Protein sequences, listed by entry. Tags and fused reporters are not part of them.
UniProt O08586: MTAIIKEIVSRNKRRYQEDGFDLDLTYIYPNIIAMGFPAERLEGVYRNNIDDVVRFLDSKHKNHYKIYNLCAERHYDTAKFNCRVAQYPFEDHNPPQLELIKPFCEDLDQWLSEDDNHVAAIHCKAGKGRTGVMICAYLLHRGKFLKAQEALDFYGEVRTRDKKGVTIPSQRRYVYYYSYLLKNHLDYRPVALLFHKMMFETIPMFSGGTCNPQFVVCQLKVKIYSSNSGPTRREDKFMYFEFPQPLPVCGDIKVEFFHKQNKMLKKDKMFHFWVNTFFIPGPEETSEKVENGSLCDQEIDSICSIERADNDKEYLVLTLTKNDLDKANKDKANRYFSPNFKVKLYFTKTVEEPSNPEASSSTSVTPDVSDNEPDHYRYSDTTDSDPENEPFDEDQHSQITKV
UniProt P45481: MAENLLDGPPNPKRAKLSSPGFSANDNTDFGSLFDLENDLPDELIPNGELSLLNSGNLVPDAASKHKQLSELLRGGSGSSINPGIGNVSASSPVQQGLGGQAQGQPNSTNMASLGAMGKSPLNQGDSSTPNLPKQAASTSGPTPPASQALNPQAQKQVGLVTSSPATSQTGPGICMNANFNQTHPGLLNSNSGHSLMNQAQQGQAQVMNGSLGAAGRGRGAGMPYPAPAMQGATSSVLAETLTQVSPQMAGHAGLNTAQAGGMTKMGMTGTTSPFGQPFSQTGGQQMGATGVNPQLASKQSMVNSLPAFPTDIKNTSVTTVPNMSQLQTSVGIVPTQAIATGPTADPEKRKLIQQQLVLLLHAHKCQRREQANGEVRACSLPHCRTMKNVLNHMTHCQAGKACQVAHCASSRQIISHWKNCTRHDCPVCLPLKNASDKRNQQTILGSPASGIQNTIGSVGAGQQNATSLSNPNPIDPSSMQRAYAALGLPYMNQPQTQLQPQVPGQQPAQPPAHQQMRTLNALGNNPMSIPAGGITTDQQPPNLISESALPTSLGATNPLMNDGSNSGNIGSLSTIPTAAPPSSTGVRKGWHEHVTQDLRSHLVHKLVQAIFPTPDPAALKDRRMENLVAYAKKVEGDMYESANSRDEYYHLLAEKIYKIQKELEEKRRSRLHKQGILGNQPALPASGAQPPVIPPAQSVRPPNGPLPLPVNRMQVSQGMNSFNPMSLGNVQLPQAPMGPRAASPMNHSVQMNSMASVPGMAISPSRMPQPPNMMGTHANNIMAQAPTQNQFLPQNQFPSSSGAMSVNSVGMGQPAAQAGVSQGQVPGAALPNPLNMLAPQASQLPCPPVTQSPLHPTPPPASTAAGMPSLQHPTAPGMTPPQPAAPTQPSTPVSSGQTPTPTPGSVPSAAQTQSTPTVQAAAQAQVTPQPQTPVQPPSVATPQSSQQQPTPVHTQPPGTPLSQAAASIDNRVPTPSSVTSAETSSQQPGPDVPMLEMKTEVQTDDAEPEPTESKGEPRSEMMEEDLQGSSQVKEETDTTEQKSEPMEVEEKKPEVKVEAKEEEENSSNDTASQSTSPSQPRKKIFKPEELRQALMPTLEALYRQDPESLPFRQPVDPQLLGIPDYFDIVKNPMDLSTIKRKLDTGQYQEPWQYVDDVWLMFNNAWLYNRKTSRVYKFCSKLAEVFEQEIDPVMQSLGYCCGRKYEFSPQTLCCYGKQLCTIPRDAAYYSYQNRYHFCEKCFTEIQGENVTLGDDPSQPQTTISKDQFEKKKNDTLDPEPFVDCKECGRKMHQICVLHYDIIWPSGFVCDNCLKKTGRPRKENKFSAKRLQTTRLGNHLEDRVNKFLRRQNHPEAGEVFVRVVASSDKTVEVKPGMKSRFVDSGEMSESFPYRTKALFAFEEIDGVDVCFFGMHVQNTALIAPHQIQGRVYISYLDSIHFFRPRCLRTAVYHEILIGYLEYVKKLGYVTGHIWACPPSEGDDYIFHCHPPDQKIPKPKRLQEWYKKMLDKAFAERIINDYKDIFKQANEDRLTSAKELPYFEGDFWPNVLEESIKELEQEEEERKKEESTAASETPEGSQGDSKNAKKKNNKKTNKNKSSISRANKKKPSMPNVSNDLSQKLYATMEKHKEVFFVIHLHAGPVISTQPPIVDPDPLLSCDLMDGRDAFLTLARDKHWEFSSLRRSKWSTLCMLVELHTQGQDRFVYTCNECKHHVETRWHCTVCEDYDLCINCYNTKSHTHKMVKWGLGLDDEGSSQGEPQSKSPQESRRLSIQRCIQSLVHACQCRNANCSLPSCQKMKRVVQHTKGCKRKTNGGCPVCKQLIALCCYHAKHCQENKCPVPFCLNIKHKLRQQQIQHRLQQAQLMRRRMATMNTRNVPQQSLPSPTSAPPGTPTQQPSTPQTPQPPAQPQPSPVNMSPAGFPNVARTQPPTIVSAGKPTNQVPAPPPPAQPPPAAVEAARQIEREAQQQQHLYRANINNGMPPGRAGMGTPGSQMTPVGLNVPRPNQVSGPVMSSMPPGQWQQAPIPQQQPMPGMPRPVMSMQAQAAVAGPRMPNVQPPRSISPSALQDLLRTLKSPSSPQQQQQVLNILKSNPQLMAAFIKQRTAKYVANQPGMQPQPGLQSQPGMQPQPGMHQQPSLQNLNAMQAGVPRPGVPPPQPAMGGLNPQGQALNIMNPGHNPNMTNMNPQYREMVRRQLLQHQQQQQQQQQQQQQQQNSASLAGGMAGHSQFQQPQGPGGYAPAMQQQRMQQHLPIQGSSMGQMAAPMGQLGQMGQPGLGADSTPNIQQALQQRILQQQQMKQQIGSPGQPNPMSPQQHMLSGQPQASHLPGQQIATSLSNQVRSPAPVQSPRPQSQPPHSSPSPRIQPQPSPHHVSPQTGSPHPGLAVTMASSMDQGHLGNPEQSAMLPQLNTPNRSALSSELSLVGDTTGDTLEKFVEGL
UniProt P46935: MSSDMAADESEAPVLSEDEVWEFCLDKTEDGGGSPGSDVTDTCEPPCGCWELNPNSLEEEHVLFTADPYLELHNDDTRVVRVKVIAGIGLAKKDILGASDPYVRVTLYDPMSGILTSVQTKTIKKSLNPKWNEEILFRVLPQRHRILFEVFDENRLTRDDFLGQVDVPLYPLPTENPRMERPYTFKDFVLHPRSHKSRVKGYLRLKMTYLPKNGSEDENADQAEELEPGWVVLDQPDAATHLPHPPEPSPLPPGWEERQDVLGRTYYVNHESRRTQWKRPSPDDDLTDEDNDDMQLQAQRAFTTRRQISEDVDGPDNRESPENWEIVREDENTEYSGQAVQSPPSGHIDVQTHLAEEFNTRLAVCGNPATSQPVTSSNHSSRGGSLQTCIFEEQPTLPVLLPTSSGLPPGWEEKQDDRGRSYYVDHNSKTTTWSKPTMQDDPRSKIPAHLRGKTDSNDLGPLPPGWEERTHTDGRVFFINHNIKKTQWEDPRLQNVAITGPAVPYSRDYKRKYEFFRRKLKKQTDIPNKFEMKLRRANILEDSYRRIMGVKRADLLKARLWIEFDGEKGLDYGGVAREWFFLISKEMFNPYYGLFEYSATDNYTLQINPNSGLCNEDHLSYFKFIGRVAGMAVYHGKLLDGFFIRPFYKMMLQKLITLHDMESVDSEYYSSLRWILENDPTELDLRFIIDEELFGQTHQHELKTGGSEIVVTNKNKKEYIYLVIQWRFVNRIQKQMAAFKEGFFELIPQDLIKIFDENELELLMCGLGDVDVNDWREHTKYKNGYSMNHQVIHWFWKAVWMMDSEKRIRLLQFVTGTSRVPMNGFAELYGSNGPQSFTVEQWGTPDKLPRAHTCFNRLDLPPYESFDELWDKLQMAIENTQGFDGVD
UniProt Q9DBH0: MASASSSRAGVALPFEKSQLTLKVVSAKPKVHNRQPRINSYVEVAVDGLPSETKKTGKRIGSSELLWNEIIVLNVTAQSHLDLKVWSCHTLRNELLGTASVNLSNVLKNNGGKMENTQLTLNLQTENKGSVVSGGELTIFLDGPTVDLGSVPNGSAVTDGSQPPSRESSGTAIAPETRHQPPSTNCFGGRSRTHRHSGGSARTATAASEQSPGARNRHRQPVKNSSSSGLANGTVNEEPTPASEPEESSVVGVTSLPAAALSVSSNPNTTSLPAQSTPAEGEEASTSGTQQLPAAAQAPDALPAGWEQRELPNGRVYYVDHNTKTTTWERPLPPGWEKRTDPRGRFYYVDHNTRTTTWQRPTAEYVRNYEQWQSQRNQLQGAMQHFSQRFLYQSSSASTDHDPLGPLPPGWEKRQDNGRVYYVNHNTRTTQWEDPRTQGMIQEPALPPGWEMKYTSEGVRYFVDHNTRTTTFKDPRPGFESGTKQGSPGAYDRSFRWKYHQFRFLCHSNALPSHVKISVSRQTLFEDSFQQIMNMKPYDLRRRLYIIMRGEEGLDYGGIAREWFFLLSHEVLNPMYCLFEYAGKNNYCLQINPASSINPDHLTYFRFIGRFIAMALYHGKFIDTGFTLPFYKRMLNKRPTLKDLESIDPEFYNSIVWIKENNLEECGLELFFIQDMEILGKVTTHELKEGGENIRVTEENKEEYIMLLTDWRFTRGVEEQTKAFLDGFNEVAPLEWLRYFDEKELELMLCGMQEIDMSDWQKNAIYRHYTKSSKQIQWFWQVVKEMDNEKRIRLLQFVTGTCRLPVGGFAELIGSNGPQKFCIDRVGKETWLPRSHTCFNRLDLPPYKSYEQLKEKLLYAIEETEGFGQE

Experiment [1] has as its target T1, Staphylococcal nuclease and Tudor domain-containing 1 (Tudor-SN) (mouse (endogenous in MASMCs)) (UniProt Q78PY7).
T1 sequence: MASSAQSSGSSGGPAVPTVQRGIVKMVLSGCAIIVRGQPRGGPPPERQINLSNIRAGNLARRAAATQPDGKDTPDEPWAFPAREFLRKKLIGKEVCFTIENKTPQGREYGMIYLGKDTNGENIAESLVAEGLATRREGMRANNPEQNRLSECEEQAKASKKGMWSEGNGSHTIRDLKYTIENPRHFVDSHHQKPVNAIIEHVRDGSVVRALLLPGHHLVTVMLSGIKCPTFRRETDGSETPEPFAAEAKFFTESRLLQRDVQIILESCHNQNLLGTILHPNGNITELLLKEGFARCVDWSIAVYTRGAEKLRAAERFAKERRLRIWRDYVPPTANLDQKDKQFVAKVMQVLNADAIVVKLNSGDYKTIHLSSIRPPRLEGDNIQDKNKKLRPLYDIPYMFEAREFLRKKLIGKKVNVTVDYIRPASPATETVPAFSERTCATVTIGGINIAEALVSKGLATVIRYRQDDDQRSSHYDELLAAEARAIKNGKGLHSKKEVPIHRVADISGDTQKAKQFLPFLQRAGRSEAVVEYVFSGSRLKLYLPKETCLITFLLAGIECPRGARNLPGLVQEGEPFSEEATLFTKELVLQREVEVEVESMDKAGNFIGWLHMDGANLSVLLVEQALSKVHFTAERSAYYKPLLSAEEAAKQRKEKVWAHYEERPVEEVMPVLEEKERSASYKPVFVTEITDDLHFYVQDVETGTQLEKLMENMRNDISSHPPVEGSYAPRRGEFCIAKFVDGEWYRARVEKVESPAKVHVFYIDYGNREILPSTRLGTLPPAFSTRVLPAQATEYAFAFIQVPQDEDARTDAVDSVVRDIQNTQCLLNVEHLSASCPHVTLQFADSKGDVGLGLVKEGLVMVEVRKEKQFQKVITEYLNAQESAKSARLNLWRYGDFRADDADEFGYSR
In words: co-IP; endogenous proteins in lysates of wild-type MASMCs (Fig. 5B, 6F), also of TSN^WT and TSN^smcKO MASMCs (Fig. 6H); specific antibodies or IgG at 4 °C overnight, protein A/G magnetic beads 2 h; washed 6 times in 150 mmol/L NaCl, 20 mmol/L Tris-HCl pH 7.5, 5% glycerol, 1 mmol/L MgCl2, 1 mmol/L EDTA; immunoblot.

Experiment [2] has as its target PTEN (mouse (endogenous in MASMCs)) (UniProt O08586). Described as above.

No constants are given. Whether binding was seen depends on the method and setting. Binding seen in cells or lysates may run through a third protein. Some binding calls cover weakened binding; strength is not graded here.

For the substance CREBBP (from UniProt P45481 1-2441), in experiment [1], the binding result was “binds”. As for “NEDD4-1 (from UniProt P46935 1-887) (enzyme)”, the binding result in experiment [2] and in experiment [1] was “binds” each time. For PTEN (from UniProt O08586 1-403), the binding entry in experiment [1] was “binds”. In the case of “WWP2 (from UniProt Q9DBH0 1-870) (enzyme)”, the binding entry in experiment [2] and in experiment [1] was “binds” throughout.
